# Source: PubChem BioAssay AID493014 (National Center for Advancing Translational Sciences (NCATS), 2011)
# The whole screen tested about 340,000 compounds, of which about 170 (0.05%) were called active. Inconclusive results, whose numbers are uncertain, are shown with a selection of clear calls. Calls come from the whole dose curve; as a rule, active = well fitted inhibition curve with a large enough effect in the signal ratio, with a control signal flat (not every such curve was filed as active); inconclusive = small, poorly fitted or top-dose-only effect, or effect the other way, or a change in a side signal; inactive = flat fitted curve, though single readings scatter; the % refers to the signal ratio. Potencies beside an inconclusive call are fits to weak or partial responses and may not hold up.
# Test: qHTS Assay to Find Inhibitors of Chronic Active B-Cell Receptor Signaling;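 for activity change, negative = inhibition: plate controls were basal doxycycline-induced cells for no effect and cells given 10 µM MG132 for full effect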
# Settings: ABC-DLBCL IkBa-CBG/CBR reporter, luminescence ratio (green luciferase fused to IkBa over red control in TMD8 lymphoma cells), 4 h; activity change, negative = inhibition: at 46.1 µM (top of the series)
# Method in brief: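 TMD8 ABC-DLBCL cells carrying doxycycline-inducible green luciferase fused to IkappaBalpha plus unfused red luciferase were exposed to compounds (up to 46 uM) for 4 hrs at 37C. Activity came from the overlap-corrected green/red luminescence ratio.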
# Potency is the fitted concentration of half-maximal effect.
Structure (SMILES),"activity change, negative = inhibition",Potency
COC(=O)c1nn(-c2ccc(OC)cc2)c(=O)cc1O,inactive: -4.22%,
CCOCCOc1cccc(C(=O)NC(c2ccccc2)c2ccccc2)c1,inconclusive: 9.62%,
O=C1C=C(c2ccc3[nH]ccc3c2)C[C@@H](c2ccc(Cl)cc2)C1,inconclusive: 14.7%,
O=C(Nc1cccc(C(F)(F)F)c1)C(Sc1n[nH]c(=O)[nH]c1=O)c1ccccc1 (stereo not drawn),inconclusive: 8.23%,
C(=C\c1ccccc1)/CSc1nnc(-c2ccccn2)n1Cc1ccco1,,"inconclusive: 16.4 µM [falling, single point]"
CC(C)P(=O)(c1cccc(C(=O)O)c1)C(C)C,inconclusive: -0.0133%,
Nc1nc(-c2ccccc2)cc(N2CCCCC2)n1,inconclusive: -1.78%,
Cc1ccc(N=c2c([N+](=O)[O-])nn(-c3ccccc3)n2O)c(C)c1,,"inconclusive: 1.84 µM [falling, full curve]"
C/C(=N\NC(=O)c1ccccc1)c1ccc(-n2ccnc2)cc1,,"inconclusive: 3.66 µM [falling, single point]"
CCOC(=O)c1csc(NC(=O)CSc2nnnn2-c2cccc(OC)c2)n1,inconclusive: 4.97%,
Cc1ccc(Nc2nc(N)c([N+](=O)[O-])c(NCCO)n2)cc1,inconclusive: 0.443%,
COc1ccc(CN2C(=O)CNC2=S)cc1,inconclusive: 1.33%,
O=c1c2cc(Cl)ccc2[nH]c(=S)n1Cc1cccs1,inconclusive: 4.2%,
CCOC(=O)c1sc(NS(=O)(=O)c2ccc(NC(C)=O)cc2)nc1C,inconclusive: 6.58%,
O=C(CSc1nc2ccccc2n1S(=O)(=O)c1ccccc1)N1CCCCC1,inactive: 12.5%,
COCCCNC(=O)c1sc2ncnc(N3CCc4ccccc4C3)c2c1C,,"inconclusive: 0.116 µM [falling, full curve, poor fit]"
O=C(c1cc2ccccc2oc1=O)N1CCOCC1,inconclusive: -20.9%,
CCc1ccc2[nH]c(=O)c(C(c3nnnn3CCOC)N3CCN(c4ccccc4)CC3)cc2c1 (stereo not drawn),inactive: -1.32%,
CCOC(=O)C1CCCN(C(=O)c2sc3nc(-c4ccccc4)cn3c2C)C1 (stereo not drawn),inconclusive: 6.52%,
C=CCn1c(C2CCCCC2)n[nH]c1=S,inconclusive: 3.51%,
Cc1ccc(-c2ccccc2)n1-c1ccc(C(=O)O)cc1,,"inconclusive: 20.6 µM [falling, single point]"
COc1ccc(NC(=S)N2CCN(C(c3ccccc3)c3ccccc3)CC2)cc1OC,inconclusive: -12.8%,
CCc1nnc(NC(=O)C2c3ccccc3Oc3ccccc32)s1,inconclusive: -5.87%,

# Looked up above:
# Value of CCc1ccc2[nH]c(=O)c(C(c3nnnn3CCOC)N3CCN(c4ccccc4)CC3)cc2c1 (stereo not drawn) under activity change, negative = inhibition: inactive: -1.32%
# Value of CCc1nnc(NC(=O)C2c3ccccc3Oc3ccccc32)s1 under activity change, negative = inhibition: inconclusive: -5.87%
